Measurements reported in US20090226500A1, “SUTURES AND ANTI-SCARRING AGENTS” (Angiotech Pharmaceuticals, Inc, priority 2006, published 2009).
pIC50: −log10 of the molar value.

Tested on: human fibroblasts
Experiment: Cell proliferation of fibroblasts
Assay type: cell-based
Conditions: Fibroblast, 72 hours, CYQUANT
Description: Fibroblasts at 70-90% confluency are trypsinized, replated at 600 cells/well in media in 96-well plates and allowed to attachment overnight. […] Each drug concentration is tested in triplicate wells. Plates containing fibroblasts and drug substance are incubated at 37° C. for 72 hours.
To terminate the assay, the media is removed by gentle aspiration. A 1/400 dilution of CYQUANT 400×GR™ dye indicator (Molecular Probes; Eugene, Oreg.) is added to 1× Cell Lysis buffer, and 200 μL of the mixture is added to the wells of the plate. Plates are incubated at room temperature, protected from light for 3-5 minutes.

Work on `CO[C@@H]1[C@H](N(C)C(=O)c2ccccc2)C[C@H]2O[C@]1(C)n1c3ccccc3c3c4c(c5c6ccccc6n2c5c31)C(=O)NC4` [Midostaurin, N-Benzoylstaurosporine] yielded a pIC50 of 7.00 to 8.00.
